The list shows a part of the results.
Key:
Test in all cases: glycan array binding signal (z-score within array); higher = stronger binding
Conditions in all cases: glycan notation: IUPAC condensed, linker removed
Gal3S(b1-4)Glc = biological target: Gal3S(b1-4)Glc
Outline: (§1)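 The binding signal is a Z-score computed within each array and averaged over linkers. Arrays of the same protein sequence at different concentrations or buffers were also averaged together. Data originate from 3228 arrays in the Consortium for Functional Glycomics database, kept only where the protein sequence was available.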

Gal3S(b1-4)Glc6S = biological target: Gal3S(b1-4)Glc6S
Outline: as §1

Gal3S(b1-4)GlcNAc = biological target: Gal3S(b1-4)GlcNAc
Outline: as §1

[1] = biological target: Gal3S(b1-4)[Fuc(a1-3)]Glc6S
Outline: as §1

[2] = biological target: Gal3S(b1-4)[Fuc(a1-3)]GlcNAc
Outline: as §1

[3] = biological target: Gal3S(b1-4)[Fuc(a1-3)]GlcNAc6S
Outline: as §1

Gal3S4S(b1-4)GlcNAc = biological target: Gal3S4S(b1-4)GlcNAc
Outline: as §1

Gal3S6S(b1-4)GlcNAc = biological target: Gal3S6S(b1-4)GlcNAc
Outline: as §1

Gal3S6S(b1-4)GlcNAc6S = biological target: Gal3S6S(b1-4)GlcNAc6S
Outline: as §1

Gal4S(b1-4)GlcNAc = biological target: Gal4S(b1-4)GlcNAc
Outline: as §1

Gal4S6S(b1-4)GlcNAc = biological target: Gal4S6S(b1-4)GlcNAc
Outline: as §1

Gal6P(b1-4)GlcNAc = biological target: Gal6P(b1-4)GlcNAc
Outline: as §1

Gal6S(b1-3)GlcNAc = biological target: Gal6S(b1-3)GlcNAc
Outline: as §1

Gal6S(b1-3)GlcNAc6S = biological target: Gal6S(b1-3)GlcNAc6S
Outline: as §1

Gal6S(b1-4)Glc = biological target: Gal6S(b1-4)Glc
Outline: as §1

Gal6S(b1-4)Glc6S = biological target: Gal6S(b1-4)Glc6S
Outline: as §1

Gal6S(b1-4)GlcNAc = biological target: Gal6S(b1-4)GlcNAc
Outline: as §1

Gal6S(b1-4)GlcNAc6S = biological target: Gal6S(b1-4)GlcNAc6S
Outline: as §1

GalNAc(a1-3)Gal = biological target: GalNAc(a1-3)Gal
Outline: as §1

GalNAc(a1-3)GalNAc = biological target: GalNAc(a1-3)GalNAc
Outline: as §1

[4] = biological target: GalNAc(a1-3)GalNAc(b1-3)Gal(a1-4)Gal(b1-4)Glc
Outline: as §1

[5] = biological target: GalNAc(a1-3)GalNAc(b1-3)Gal(a1-4)Gal(b1-4)GlcNAc
Outline: as §1

GalNAc(b1-3)Gal = biological target: GalNAc(b1-3)Gal
Outline: as §1

[6] = biological target: GalNAc(b1-3)Gal(a1-4)Gal(b1-4)GlcNAc
Outline: as §1

[7] = biological target: GalNAc(b1-3)Gal(a1-4)Gal(b1-4)GlcNAc(b1-3)Gal(b1-4)Glc
Outline: as §1

[8] = biological target: GalNAc(b1-3)Gal(a1-6)Gal(b1-4)Glc
Outline: as §1

GalNAc(b1-3)GalNAc = biological target: GalNAc(b1-3)GalNAc
Outline: as §1

GalNAc(b1-3)GlcNAc = biological target: GalNAc(b1-3)GlcNAc
Outline: as §1

GalNAc(b1-4)Gal(b1-4)Glc = biological target: GalNAc(b1-4)Gal(b1-4)Glc
Outline: as §1

GalNAc(b1-4)GlcNAc = biological target: GalNAc(b1-4)GlcNAc
Outline: as §1

[9] = biological target: GalNAc(b1-4)GlcNAc(b1-2)Man
Outline: as §1

[10] = biological target: GalNAc(b1-4)GlcNAc(b1-2)Man(a1-3)[GalNAc(b1-4)GlcNAc(b1-2)Man(a1-6)]Man(b1-4)GlcNAc(b1-4)GlcNAc
Outline: as §1

[11] = biological target: GalNAc(b1-4)GlcNAc(b1-3)GalNAc(b1-4)GlcNAc
Outline: as §1

GalNAc(b1-4)GlcNAc6S = biological target: GalNAc(b1-4)GlcNAc6S
Outline: as §1

GalNAc(b1-6)GalNAc = biological target: GalNAc(b1-6)GalNAc
Outline: as §1

GalNAc3S(b1-4)GlcNAc = biological target: GalNAc3S(b1-4)GlcNAc
Outline: as §1

GalNAc3S(b1-4)GlcNAc3S = biological target: GalNAc3S(b1-4)GlcNAc3S
Outline: as §1

[12] = biological target: GalNAc3S(b1-4)[Fuc(a1-3)]GlcNAc
Outline: as §1

GalNAc4S6S(b1-4)GlcNAc = biological target: GalNAc4S6S(b1-4)GlcNAc
Outline: as §1

GalNAc6S(b1-4)GlcNAc = biological target: GalNAc6S(b1-4)GlcNAc
Outline: as §1

Glc(a1-4)Glc = biological target: Glc(a1-4)Glc
Outline: as §1

[13] = biological target: Glc(a1-4)Glc(a1-4)Glc(a1-4)Glc
Outline: as §1

Glc(a1-6)Glc(a1-6)Glc = biological target: Glc(a1-6)Glc(a1-6)Glc
Outline: as §1

[14] = biological target: Glc(a1-6)Glc(a1-6)Glc(a1-6)Glc
Outline: as §1

Glc(b1-4)Glc = biological target: Glc(b1-4)Glc
Outline: as §1

B1: Sp8391B-bot-388-20-388 (Bacteroides ovatus) (protein)
chain: GCQNNDENEQHYDNKLFISASNFTKEILFKAGDTNVETGLSVAIAKPEEHDIKVTMSPAPELLSTYKLAYYDETAVLLSEEHYSMPETSTTIKSGSIVSPELPIEFINTGELDIKTTYVLPVTIKSVEGIGVLQSAKTYYYVFRGASLINVVCNISRNRAYPDFKNDSKFNNLTENTMEILFKANSFPNTLNTLMGIESNYLLRIGDATIPNNQLQVATSVNNCTSADLQLESGKWYHVAVAFNKGNVKVYINGVEKLSGSTGKSSVSLGAKHTNEEDGSRCFWVGYSYKDDRYFDGVVSEVRIWNRALTAEEIQATNHFYTIEPESEGLIAYWKFDEGSGTVAKDYSVSGYDLTIEKEPKWESVSLPQ
- glycan array binding signal (z-score) (Gal3S(b1-4)Glc): 0.8
- glycan array binding signal (z-score) (Gal3S(b1-4)Glc6S): -0.255
- glycan array binding signal (z-score) (Gal3S(b1-4)GlcNAc): 0.727
- glycan array binding signal (z-score) [1]: -0.067
- glycan array binding signal (z-score) [2]: 0.249
- glycan array binding signal (z-score) [3]: 0.804
- glycan array binding signal (z-score) (Gal3S4S(b1-4)GlcNAc): -0.278
- glycan array binding signal (z-score) (Gal3S6S(b1-4)GlcNAc): -0.221
- glycan array binding signal (z-score) (Gal3S6S(b1-4)GlcNAc6S): -0.031
- glycan array binding signal (z-score) (Gal4S(b1-4)GlcNAc): -0.388
- glycan array binding signal (z-score) (Gal4S6S(b1-4)GlcNAc): -0.48
- glycan array binding signal (z-score) (Gal6P(b1-4)GlcNAc): -0.405
- glycan array binding signal (z-score) (Gal6S(b1-3)GlcNAc): -0.708
- glycan array binding signal (z-score) (Gal6S(b1-3)GlcNAc6S): 0.217
- glycan array binding signal (z-score) (Gal6S(b1-4)Glc): -0.185
- glycan array binding signal (z-score) (Gal6S(b1-4)Glc6S): -0.063
- glycan array binding signal (z-score) (Gal6S(b1-4)GlcNAc): -0.679
- glycan array binding signal (z-score) (Gal6S(b1-4)GlcNAc6S): -0.591
- glycan array binding signal (z-score) (GalNAc(a1-3)Gal): -0.131
- glycan array binding signal (z-score) (GalNAc(a1-3)GalNAc): -0.295
- glycan array binding signal (z-score) [4]: -1.01
- glycan array binding signal (z-score) [5]: 1.69
- glycan array binding signal (z-score) (GalNAc(b1-3)Gal): -0.079
- glycan array binding signal (z-score) [6]: -0.265
- glycan array binding signal (z-score) [7]: 0.152
- glycan array binding signal (z-score) [8]: -0.567
- glycan array binding signal (z-score) (GalNAc(b1-3)GalNAc): 0.041
- glycan array binding signal (z-score) (GalNAc(b1-3)GlcNAc): 0.354
- glycan array binding signal (z-score) (GalNAc(b1-4)Gal(b1-4)Glc): 0.821
- glycan array binding signal (z-score) (GalNAc(b1-4)GlcNAc): -0.79
- glycan array binding signal (z-score) [9]: -0.586
- glycan array binding signal (z-score) [10]: 1.65
- glycan array binding signal (z-score) [11]: 0.716
- glycan array binding signal (z-score) (GalNAc(b1-4)GlcNAc6S): -1.03
- glycan array binding signal (z-score) (GalNAc(b1-6)GalNAc): 0.407
- glycan array binding signal (z-score) (GalNAc3S(b1-4)GlcNAc): -0.773
- glycan array binding signal (z-score) (GalNAc3S(b1-4)GlcNAc3S): -0.067
- glycan array binding signal (z-score) [12]: -0.266
- glycan array binding signal (z-score) (GalNAc4S6S(b1-4)GlcNAc): -0.043
- glycan array binding signal (z-score) (GalNAc6S(b1-4)GlcNAc): -1.27
- glycan array binding signal (z-score) (Glc(a1-4)Glc): 0.181
- glycan array binding signal (z-score) [13]: -0.549
- glycan array binding signal (z-score) (Glc(a1-6)Glc(a1-6)Glc): -0.584
- glycan array binding signal (z-score) [14]: -0.611
- glycan array binding signal (z-score) (Glc(b1-4)Glc): -0.009
